These are yes or no findings as the source states them, for the method shown. For some assays here: In cells and extracts the contact can be indirect. Some entries that bind do so weakly or less than the wild type. Where a sequence is shown, tags or fusion partners need not be part of it.
T1: TCP17 fused to BD (yeast two-hybrid) (Arabidopsis thaliana) (UniProt Q9LEZ9)
T1 sequence: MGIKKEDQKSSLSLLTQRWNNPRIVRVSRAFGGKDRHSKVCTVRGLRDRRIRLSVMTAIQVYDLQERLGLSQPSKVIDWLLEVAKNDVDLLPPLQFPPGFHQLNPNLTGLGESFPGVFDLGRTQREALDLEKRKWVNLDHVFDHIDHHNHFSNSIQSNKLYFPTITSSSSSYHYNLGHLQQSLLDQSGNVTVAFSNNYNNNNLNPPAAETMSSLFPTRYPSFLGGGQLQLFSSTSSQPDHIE

T2: TCP5 fused to BD (yeast two-hybrid) (Arabidopsis thaliana) (UniProt Q9FME3)
T2 sequence: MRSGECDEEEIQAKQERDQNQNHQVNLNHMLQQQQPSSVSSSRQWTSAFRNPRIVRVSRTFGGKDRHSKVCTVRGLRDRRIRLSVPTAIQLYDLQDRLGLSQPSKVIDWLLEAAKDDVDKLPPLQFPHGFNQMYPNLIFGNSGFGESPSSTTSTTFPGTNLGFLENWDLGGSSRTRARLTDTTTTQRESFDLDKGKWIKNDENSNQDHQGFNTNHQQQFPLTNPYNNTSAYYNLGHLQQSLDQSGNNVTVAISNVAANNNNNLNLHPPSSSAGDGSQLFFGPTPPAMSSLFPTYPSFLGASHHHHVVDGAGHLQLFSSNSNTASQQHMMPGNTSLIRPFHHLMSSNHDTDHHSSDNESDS

T3: TCP13 fused to BD (yeast two-hybrid) (Arabidopsis thaliana) (UniProt Q9S7W5)
T3 sequence: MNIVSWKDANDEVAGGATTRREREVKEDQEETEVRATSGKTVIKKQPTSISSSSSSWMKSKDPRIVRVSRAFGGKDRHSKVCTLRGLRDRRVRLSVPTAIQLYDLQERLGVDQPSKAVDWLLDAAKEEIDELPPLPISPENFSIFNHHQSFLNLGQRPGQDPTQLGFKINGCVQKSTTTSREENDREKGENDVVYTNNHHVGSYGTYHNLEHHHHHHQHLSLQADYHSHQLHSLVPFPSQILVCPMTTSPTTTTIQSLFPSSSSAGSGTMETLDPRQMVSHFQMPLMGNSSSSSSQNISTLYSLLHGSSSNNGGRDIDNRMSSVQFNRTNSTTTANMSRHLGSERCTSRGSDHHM

T4: TCP17-YFP^C (BiFC) (Arabidopsis thaliana) (UniProt Q9LEZ9)
T4 sequence: T1 sequence

T5: TCP13-YFP^C (BiFC) (Arabidopsis thaliana) (UniProt Q9S7W5)
T5 sequence: T3 sequence

T6: TCP5-YFP^C (BiFC) (Arabidopsis thaliana) (UniProt Q9FME3)
T6 sequence: T2 sequence

B1: ATHB2 (Arabidopsis thaliana homeobox 2) fused to AD (yeast two-hybrid) (protein, UniProt Q05466 1-284)
chain: MMFEKDDLGLSLGLNFPKKQINLKSNPSVSVTPSSSSFGLFRRSSWNESFTSSVPNSDSSQKETRTFIRGIDVNRPPSTAEYGDEDAGVSSPNSTVSSSTGKRSEREEDTDPQGSRGISDDEDGDNSRKKLRLSKDQSAILEETFKDHSTLNPKQKQALAKQLGLRARQVEVWFQNRRARTKLKQTEVDCEFLRRCCENLTEENRRLQKEVTELRALKLSPQFYMHMSPPTTLTMCPSCEHVSVPPPQPQAATSAHHRSLPVNAWAPATRISHGLTFDALRPRS
B2: ATHB2-YFP^N (BiFC) (protein, UniProt Q05466 1-284)
chain: B1 chain
B3: ATHB4-YFP^N (BiFC) (protein, UniProt P92953 1-318)
chain: MGERDDGLGLSLSLGNSQQKEPSLRLNLMPLTTSSSSSSFQHMHNQNNNSHPQKIHNISWTHLFQSSGIKRTTAERNSDAGSFLRGFNVNRAQSSVAVVDLEEEAAVVSSPNSAVSSLSGNKRDLAVARGGDENEAERASCSRGGGSGGSDDEDGGNGDGSRKKLRLSKDQALVLEETFKEHSTLNPKQKLALAKQLNLRARQVEVWFQNRRARTKLKQTEVDCEYLKRCCDNLTEENRRLQKEVSELRALKLSPHLYMHMTPPTTLTMCPSCERVSSSAATVTAAPSTTTTPTVVGRPSPQRLTPWTAISLQQKSGR
B4: HAT3-YFP^N (BiFC) (protein, UniProt P46602 1-315)
chain: MSERDDGLGLSLSLSLGFNQKDPSSRLNPMPLASYASSSHMQHMQQSNYNHPQKIQNTWINMFQSSERNSDMRSFLRGIDVNRAPSTVVVDVEDEGAGVSSPNSTVSSVMSGKKSERELMAAAGAVGGGRVEDNEIERASCSLGGGSDDEDGSGNGDDSSRKKLRLSKEQALVLEETFKEHSTLNPKQKMALAKQLNLRTRQVEVWFQNRRARTKLKQTEVDCEYLKRCCENLTDENRRLQKEVSELRALKLSPHLYMHMKPPTTLTMCPSCERVAVTSSSSSVAPPVMNSSSPMGPMSPWAAMPLRQRPAAGSH
B5: ATHB4 fused to AD (yeast two-hybrid) (protein, UniProt P92953 1-318)
chain: B3 chain
B6: HAT3 fused to AD (yeast two-hybrid) (protein, UniProt P46602 1-315)
chain: B4 chain

How the values were obtained:
[1] = target: T1, TCP17 fused to BD (yeast two-hybrid) (Arabidopsis thaliana); test: two-hybrid; Matchmaker two-hybrid system (Takara); TCP-BD and ATHB-AD; dilutions of yeast spotted on medium with or without histidine
[2] = target: T2, TCP5 fused to BD (yeast two-hybrid) (Arabidopsis thaliana); test: as above
[3] = target: T3, TCP13 fused to BD (yeast two-hybrid) (Arabidopsis thaliana); test: as above
[4] = target: T4, TCP17-YFP^C (BiFC) (Arabidopsis thaliana); test: split reporter; BiFC: TCPs-YFP^C and ATHBs-YFP^N plasmids co-introduced into Arabidopsis protoplasts by the PEG-method; nuclei stained with DAPI; fluorescence observed after 16 h
[5] = target: T5, TCP13-YFP^C (BiFC) (Arabidopsis thaliana); test: as above
[6] = target: T6, TCP5-YFP^C (BiFC) (Arabidopsis thaliana); test: as above

Binder	binding [1]	binding [2]	binding [3]	binding [4]	binding [5]	binding [6]
B1	binds	binds	binds			
B2				binds	binds	binds
B3					binds	
B4					binds	
B5	binds	binds	binds			
B6	binds	binds	binds			

— paper PMC6770448
